Experimental data reported in patent US20170320837A1, “METHOD FOR TREATING INFLAMMATORY DISORDERS” (Synta Pharmaceuticals Corp., priority 2006, published 2017).
Some entries share one result that the patent states for a list of compounds. At least one compound was matched to its structure with a doubt left.

test system: Her2; experiment: Fluorescent staining of Her2 on the surface of treated cells (FACS); IC50 ranges of Table 8; type: cell-based, Human; conditions: read-out: IC50 Range, inhibition of Her2 degradation

IC50, < 3000 nM:
Cc1cc(-c2nnc(S)n2-c2cccc3ccccc23)c(O)cc1O [Compound 63, 3-(2,4-Dihydroxy-5-methyl-phenyl)-4-(naphthalene-1-yl)-5-mercapto-triazole]
Oc1ccc(-c2nnc(S)n2-c2cccc3[nH]ccc23)c(O)c1 [Compound 95, 3-(2,4-Dihydroxy-phenyl)-4-(indol-4-yl)-5-mercapto-triazole]
CCc1cc(-c2nnc(S)n2-c2cccc3c2ccn3C(C)C)c(O)cc1O [Compound 100, 3-(2,4-Dihydroxy-5-ethyl-phenyl)-4-(1-isopropyl-indol-4-yl)-5-mercapto-triazole]
CCc1cc(-c2nnc(S)n2-c2cccc3cc(OC)ccc23)c(O)cc1O [Compound 77, 3-(2,4-Dihydroxy-5-ethyl-phenyl)-4-(6-methoxy-naphthalin-1-yl)-5-mercapto-triazole]
CCc1cc(-c2nnc(S)n2-c2ccc3c(c2)c(C)c(C)n3C)c(O)cc1O [Compound 103, 3-(2,4-Dihydroxy-5-ethyl-phenyl)-4-(1,2,3-trimethyl-indol-5-yl)-5-mercapto-triazole]
CCc1cc(-c2nnc(S)n2-c2ccc(N(C)C)c(OC)c2)c(O)cc1O [Compound 259, 4-(4-(4-(dimethylamino)-3-methoxyphenyl)-5-mercapto-4H-1,2,4-triazol-3-yl)-6-ethylbenzene-1,3-diol]
CCc1cc(-c2nnc(S)n2-c2ccc(OC)c(N(CC)CC)c2)c(O)cc1O [Compound 247, 4-(4-(3-(diethylamino)-4-methoxyphenyl)-5-mercapto-4H-1,2,4-triazol-3-yl)-6-ethylbenzene-1,3-diol]
CCc1cc(-c2nnc(S)n2-c2cccc(N(C)C)c2)c(O)cc1O [Compound 252, 4-(4-(3-(dimethylamino)phenyl)-5-mercapto-4H-1,2,4-triazol-3-yl)-6-ethylbenzene-1,3-diol]
CC(C)n1ccc2c(-n3c(S)nnc3-c3ccc(O)cc3O)cccc21 [Compound 88, 3-(2,4-Dihydroxyphenyl)-4-(1-isopropyl-indol-4-yl)-5-mercapto-triazole]
CCc1cc(-c2nnc(S)n2-c2ccc3[nH]c(C)c(C)c3c2)c(O)cc1O [Compound 185, 3-(2,4-Dihydroxy-5-ethyl-phenyl)-4-(2,3-dimethyl-indol-5-yl)-5-mercapto-triazole]
CCc1cc(-c2nnc(S)n2-c2cccc3c(O)cccc23)c(O)cc1O [Compound 178, 3-(2,4-Dihydroxy-5-ethyl-phenyl)-4-(5-hydroxy-naphthalen-1-yl)-5-mercapto-triazole]
CCc1cc(-c2nnc(S)n2-c2ccc(OC)c(N(C)C)c2)c(O)cc1O [Compound 251, 4-(4-(3-(dimethylamino)-4-methoxyphenyl)-5-mercapto-4H-1,2,4-triazol-3-yl)-6-ethylbenzene-1,3-diol]
CCCN(c1cc(-n2c(S)nnc2-c2cc(CC)c(O)cc2O)ccc1OC)C(C)C [Compound 248, 4-(4-(3-(N-isopropyl-N-propylamino)-4-methoxyphenyl)-5-mercapto-4H-1,2,4-triazol-3-yl)-6-ethylbenzene-1,3-diol]
CCc1cc(-c2nnc(S)n2-c2ccc(OC)c3c2ccn3C(C)C)c(O)cc1O [Compound 188, 3-(2,4-Dihydroxy-5-ethyl-phenyl)-4-(1-isopropyl-7-methoxy-indol-4-yl)-5-mercapto-[1,2,4] triazole]
Oc1cc(O)c(C2CC2)cc1-c1nnc(S)n1-c1cccc2ccccc12 [Compound 189, 3-(2,4-Dihydroxy-5-cyclopropyl-phenyl)-4-(naphthalene-1-yl)-5-mercapto-triazole]
CCc1cc(-c2nnc(S)n2-c2ccc(OC)c3ccccc23)c(O)cc1O [Compound 76, 3-(2,4-Dihydroxy-5-ethyl-phenyl)-4-(4-methoxy-naphthalen-1-yl)-5-mercapto-triazole]
CCn1ccc2c(-n3c(S)nnc3-c3ccc(O)cc3O)cccc21 [Compound 13, 3-(2,4-Dihydroxyphenyl)-4-(1-ethyl-indol-4-yl)-5-mercapto-triazole]
COc1cccc2c(-n3c(S)nnc3-c3ccc(O)cc3O)cccc12 [Compound 39, 3-(2,4-Dihydroxyphenyl)-4-(5-methoxynaphthalen-1-yl)-5-mercapto-triazole]
CCc1cc(-c2nnc(S)n2-c2ccc(OC)c(N(C)C(C)C)c2)c(O)cc1O [Compound 249, 4-(4-(3-(N-isopropyl-N-methylamino)-4-methoxyphenyl)-5-mercapto-4H-1,2,4-triazol-3-yl)-6-ethylbenzene-1,3-diol]
CCc1cc(-c2nnc(S)n2-c2ccc(OC)c(C)c2C)c(O)cc1O [Compound 79, 3-(2,4-Dihydroxy-5-ethyl-phenyl)-4-(2,3-dimethy-4-methoxy-phenyl)-5-mercapto-triazole]
COc1cc(-c2nnc(S)n2-c2cccc3ccccc23)c(O)cc1O [Compound 177, 3-(2,4-Dihydroxy-5-methoxy-phenyl)-4-(naphthalen-1-yl)-5-mercapto-triazole]
CCc1cc(-c2nnc(S)n2-c2ccc(OC)c(N(C)CC)c2)c(O)cc1O [Compound 250, 4-(4-(3-(N-ethyl-N-methylamino)-4-methoxyphenyl)-5-mercapto-4H-1,2,4-triazol-3-yl)-6-ethylbenzene-1,3-diol]
Oc1ccc(-c2nnc(S)n2-c2ccc(O)c3ccccc23)c(O)c1 [Compound 87, 3-(2,4-Dihydroxyphenyl)-4-(4-hydroxy-naphthalen-1-yl)-5-mercapto-triazole]
CCc1cc(-c2nnc(S)n2-c2cccc3ccccc23)c(O)cc1O [Compound 49, 3-(2,4-Dihydroxy-5-ethyl-phenyl)-4-(naphthalen-1-yl)-5-mercapto-triazole]
CCc1cc(-c2nnc(S)n2-c2cccc3c(OC)cccc23)c(O)cc1O [Compound 8, 3-(2,4-Dihydroxy-5-ethyl-phenyl)-4-(5-methoxy-naphthalen-1-yl)-5-mercapto-triazole]
